Measured values published in patent publication US20090202543A1 (ONCOTHERAPY SCIENCE, published 2009).
These are yes or no findings as the source states them, for the method shown. Binding seen in cells or lysates may run through a third protein. Some results given as binding are weak or reduced against the parent protein; the word gives no strength. Tags and fused reporters may be left off the sequences shown.

Biological target: T1, B7330N-HA (HA-tagged B7330N expressed from pCAGGS-B7330N-HA in COS-7 cells) (human) (UniProt Q8NCL4)
T1 sequence (chain, N-glycosylated at Asn-476): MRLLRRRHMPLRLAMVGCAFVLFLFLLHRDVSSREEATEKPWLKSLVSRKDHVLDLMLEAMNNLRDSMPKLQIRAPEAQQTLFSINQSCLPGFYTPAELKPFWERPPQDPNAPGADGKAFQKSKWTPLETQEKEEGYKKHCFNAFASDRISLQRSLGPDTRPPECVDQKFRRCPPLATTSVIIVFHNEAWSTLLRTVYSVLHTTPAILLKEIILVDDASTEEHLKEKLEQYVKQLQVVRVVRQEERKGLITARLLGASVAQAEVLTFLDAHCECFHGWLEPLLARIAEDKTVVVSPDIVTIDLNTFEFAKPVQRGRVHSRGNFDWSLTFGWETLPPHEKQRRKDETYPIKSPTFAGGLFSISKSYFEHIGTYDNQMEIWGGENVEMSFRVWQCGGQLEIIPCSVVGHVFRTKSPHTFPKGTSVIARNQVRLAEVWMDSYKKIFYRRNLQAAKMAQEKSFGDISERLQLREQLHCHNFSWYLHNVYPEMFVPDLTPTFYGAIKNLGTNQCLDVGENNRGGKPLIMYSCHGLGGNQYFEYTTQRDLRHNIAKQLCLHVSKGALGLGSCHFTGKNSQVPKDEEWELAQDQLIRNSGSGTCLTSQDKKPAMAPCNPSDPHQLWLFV
Assay: co-immunoprecipitation from co-transfected COS-7 cells, anti-HA pull-down

- binding: binds
B1: B7330N-myc (myc-tagged B7330N expressed from pcDNA3.1-B7330N-myc in COS-7 cells) (enzyme, not shown: small tags and cut ends)
chain: T1 sequence (chain, N-glycosylated at Asn-476)
